Percent effect of library compounds

Amino acid sequences for entries named in this document (tags omitted). Residues count along the entry.
UniProt Q4DA54, 1-478: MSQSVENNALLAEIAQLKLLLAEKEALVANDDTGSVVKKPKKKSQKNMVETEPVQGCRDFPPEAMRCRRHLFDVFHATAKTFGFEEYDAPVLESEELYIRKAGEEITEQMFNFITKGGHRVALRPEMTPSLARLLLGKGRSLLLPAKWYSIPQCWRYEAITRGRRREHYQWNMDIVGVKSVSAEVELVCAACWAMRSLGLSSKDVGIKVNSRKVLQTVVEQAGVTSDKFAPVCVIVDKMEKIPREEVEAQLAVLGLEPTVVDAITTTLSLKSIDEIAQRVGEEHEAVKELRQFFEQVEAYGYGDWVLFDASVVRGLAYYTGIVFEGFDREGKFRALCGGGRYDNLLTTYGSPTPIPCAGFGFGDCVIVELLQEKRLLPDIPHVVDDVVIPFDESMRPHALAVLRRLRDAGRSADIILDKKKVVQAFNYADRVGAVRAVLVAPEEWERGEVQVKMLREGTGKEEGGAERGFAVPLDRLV
UniProt P9WPC5, whole entry: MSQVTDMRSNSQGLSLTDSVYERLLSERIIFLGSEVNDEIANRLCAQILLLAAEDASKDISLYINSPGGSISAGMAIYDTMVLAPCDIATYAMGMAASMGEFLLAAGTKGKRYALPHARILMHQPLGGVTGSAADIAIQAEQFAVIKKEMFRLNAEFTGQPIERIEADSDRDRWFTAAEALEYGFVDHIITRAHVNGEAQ
UniProt P9WPC3, whole entry partner: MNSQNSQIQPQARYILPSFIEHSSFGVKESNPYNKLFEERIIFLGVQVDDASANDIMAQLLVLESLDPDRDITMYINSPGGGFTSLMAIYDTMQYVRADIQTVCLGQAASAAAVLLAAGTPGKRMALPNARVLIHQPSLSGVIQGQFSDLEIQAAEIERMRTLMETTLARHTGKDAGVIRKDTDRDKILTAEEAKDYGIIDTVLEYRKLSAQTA
UniProt Q8IDJ8, 1-583: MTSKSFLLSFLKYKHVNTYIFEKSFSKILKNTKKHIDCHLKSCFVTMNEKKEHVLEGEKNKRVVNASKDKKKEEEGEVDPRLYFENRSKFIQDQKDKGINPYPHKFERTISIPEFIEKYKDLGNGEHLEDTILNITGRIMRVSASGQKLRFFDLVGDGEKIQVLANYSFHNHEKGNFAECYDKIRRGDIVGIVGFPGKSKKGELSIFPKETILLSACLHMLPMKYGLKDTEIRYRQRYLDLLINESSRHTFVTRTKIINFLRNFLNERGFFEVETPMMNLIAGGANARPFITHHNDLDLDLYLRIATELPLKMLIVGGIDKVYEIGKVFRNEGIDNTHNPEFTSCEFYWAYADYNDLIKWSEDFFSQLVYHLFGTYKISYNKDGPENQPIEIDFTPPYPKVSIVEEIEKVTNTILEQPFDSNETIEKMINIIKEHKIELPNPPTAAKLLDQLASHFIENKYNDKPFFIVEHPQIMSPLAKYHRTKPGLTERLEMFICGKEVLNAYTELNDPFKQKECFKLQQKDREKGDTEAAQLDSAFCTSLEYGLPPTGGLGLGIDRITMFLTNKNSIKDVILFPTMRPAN

Measurements from “University of Dundee, Small-Polar-MMV Screening Library” (2021), ChEMBL document CHEMBL3988442.

Leishmania in macrophages: 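Cell assay of Leishmania donovani living inside macrophages; the read-out is not stated. Concentration: 30 µM. Higher reads as stronger inhibition (inferred: compounds with an IC50 in retests scored well above the rest). Size under these conditions: about 69,000 compounds, about 1,000 of them at 50% or above in at least one test.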
TcHisRS: 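Histidine-tRNA ligase, Trypanosoma cruzi CL Brener (UniProt Q4DA54). Enzyme assay of histidyl-tRNA synthetase; the read-out is not stated. Tested at 30 µM. Higher reads as stronger inhibition (inferred: compounds with an IC50 in retests scored well above the rest). About 69,000 compounds were tested under these conditions; 0.045% (about 31) showed 50% or more at least once.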
ClpP1P2: 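Protease assay of ClpP1P2, read by the AMC dye that it sets free. Target: ClpP1P2, Mycobacterium tuberculosis (UniProt P9WPC5 and UniProt P9WPC3). Compounds at 50 µM. Higher reads as stronger inhibition, judged from the few compounds that gave an IC50. Most other retested compounds had strongly negative values. Of about 69,000 compounds tested this way, about 10 (0.015%) reached 50% or more in at least one test.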
Toxoplasma: 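Assay of Toxoplasma gondii numbers, read through their beta-galactosidase reporter with a colour substrate. Concentration: 10 µM. The record gives no direction; the compounds picked for IC50 retests had high values, so higher reads as fewer parasites. Of about 67,000 compounds tested this way, about 260 (0.38%) reached 50% or more in at least one test.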
PfKRS1: 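Enzyme assay of the cytosolic lysyl-tRNA synthetase in 384-well plates, read by luminescence. Target: Lysine-tRNA ligase, Plasmodium falciparum 3D7 (UniProt Q8IDJ8). Tested at 30 µM. Higher reads as stronger inhibition, judged from the few compounds that gave an IC50. About 69,000 compounds were tested under these conditions; 0.071% (about 49) showed 50% or more at least once.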

Each number is a percent effect as filed.
The record does not define 0% and 100%; most values in the screen are far below 50% and negative numbers occur (in some assays of this library far below -100).
Compounds were drawn at random from those tested, without regard to their results.

With CS(=O)(=O)NC1CCN(C(=O)c2ccc3ccccc3c2)C1 (configuration not stated) the screen gave Leishmania in macrophages: 8.563%; TcHisRS: 3.191%; ClpP1P2: 1.622%; Toxoplasma: -6.496%; PfKRS1: 1.893%.
With COc1ncccc1CNC(=O)NC(C)Cn1cccn1 (configuration not stated) the screen gave Leishmania in macrophages: 17.54%; TcHisRS: 6.78%; ClpP1P2: -18.22%; Toxoplasma: -3.559%; PfKRS1: 4.487%.
With CCc1cnc(C)nc1NCC(O)CN1CCCCCC1 (configuration not stated) the screen gave Leishmania in macrophages: -37.66%; TcHisRS: 1.98%; ClpP1P2: 0.1751%; Toxoplasma: -3.195%; PfKRS1: 3.944%.
With Cc1noc(C)c1-c1cc(CCC2CN(CCC(N)=O)CCO2)ncn1 (configuration not stated) the screen gave Leishmania in macrophages: -13.8%; TcHisRS: 9.091%; ClpP1P2: -8.099%; Toxoplasma: -2.516%; PfKRS1: 3.623%.
With Cl.Cn1nc(C2CCCN(Cc3cc(F)ccc3F)C2)c2nccnc21 (configuration not stated) the screen gave Leishmania in macrophages: -3.407%; Toxoplasma: -16.42%.
With CC(C)NC(=O)N1Cc2nccn2CC(COc2cccnc2)C1.O=C(O)C(F)(F)F (configuration not stated) the screen gave Leishmania in macrophages: -6.629%; Toxoplasma: 30.89%.
With CNc1ncc(CN(C)CCN2CCCCC2)cn1 the screen gave Leishmania in macrophages: 1.478%; TcHisRS: 3.101%; ClpP1P2: 11.38%; Toxoplasma: 6.408%; PfKRS1: -1.101%.
With c1ccc(-c2ccc3nc(C4CCN(CC5CC5)CC4)nn3c2)cc1 the screen gave TcHisRS: 3.306%; ClpP1P2: -9.003%; PfKRS1: -2.938%.
With Cl.c1cnc2c(c1)cc([C@@H]1CCCO1)n2CCN1CCOCC1 the screen gave Leishmania in macrophages: 6.096%; Toxoplasma: -43.71%.
With Cc1csc(CNC(=O)NCC(O)c2ccccc2)n1 (configuration not stated) the screen gave Leishmania in macrophages: 21.97%; TcHisRS: 4.926%; ClpP1P2: -5.955%; Toxoplasma: 0.885%; PfKRS1: -0.02462%.
With Cc1cc(NC(=O)C2CCCN(C(=O)NCC(C)C)C2)ccn1 (configuration not stated) the screen gave Leishmania in macrophages: -37.27%; TcHisRS: 4%; ClpP1P2: -17.15%; Toxoplasma: 0.2472%; PfKRS1: 0.3387%.
With CNC(=O)[C@H]1C[C@@H]2CN(C(=O)c3ccsc3)C[C@@H]2N1S(C)(=O)=O the screen gave TcHisRS: 9.524%; ClpP1P2: -13.71%; PfKRS1: -3.538%.
With CN(C)C(=O)NCc1cc(=O)n2c(n1)CN(Cc1ccoc1)CCC2 the screen gave TcHisRS: 3.015%; ClpP1P2: 21.3%; PfKRS1: -1.526%.
With O=C(COCC(F)(F)C(F)F)N1CCC2(CCCN(CC3CC3)C2=O)C1 (configuration not stated) the screen gave Leishmania in macrophages: 13.48%; TcHisRS: 7.895%; ClpP1P2: -2.043%; Toxoplasma: -3.196%; PfKRS1: 3.702%.
With CCO[C@@H]1CCN(C(=O)c2ccc[nH]2)[C@@H]1Cc1cccnc1 the screen gave TcHisRS: 3.061%; ClpP1P2: -7.046%; PfKRS1: 1.854%.
With CCOC(=O)[C@]12CCCN(Cc3cccs3)C[C@H]1CN(CCOC)C2 the screen gave TcHisRS: 5.028%; ClpP1P2: -16.09%; PfKRS1: 1.731%.
With Fc1cccnc1N1CCC(NCc2cccc3cn[nH]c23)C1 (configuration not stated) the screen gave Leishmania in macrophages: 7.282%; TcHisRS: 2.105%; ClpP1P2: -12.31%; Toxoplasma: -7.04%; PfKRS1: -2.975%.
With N#Cc1ccc(OC[C@]23COC[C@H]2CN(Cc2ccoc2)C3)nc1 the screen gave TcHisRS: 2.632%; ClpP1P2: -53.68%; PfKRS1: 1.499%.
With COCCC(=O)NCC(O)c1c(F)cccc1F (configuration not stated) the screen gave Leishmania in macrophages: 4.294%; TcHisRS: 1.754%; ClpP1P2: -4.745%; Toxoplasma: -4.75%; PfKRS1: 5.708%.
With COCCNC(=O)CCc1c(C)nn(-c2nc(C)c(C)c(=O)[nH]2)c1C the screen gave Leishmania in macrophages: 5.5%; TcHisRS: 3.261%; ClpP1P2: -25.69%; Toxoplasma: -3.548%; PfKRS1: 3.067%.
With COc1ccccc1N1CCCC(Nc2nccnc2C#N)C1 (configuration not stated) the screen gave Leishmania in macrophages: 32.98%; TcHisRS: 3.922%; ClpP1P2: 2.634%; Toxoplasma: 1.326%; PfKRS1: 4.068%.
With CS(=O)(=O)NCCN1CCSCC1c1ccc(Cl)cc1 (configuration not stated) the screen gave Leishmania in macrophages: -20.55%; TcHisRS: 11.9%; ClpP1P2: -4.609%; Toxoplasma: -3.172%; PfKRS1: 3.13%.
With CC(C)CN1CCCn2nc(CNC(=O)CN3CCOC3=O)cc2C1 the screen gave Leishmania in macrophages: 35.55%; TcHisRS: 3.279%; ClpP1P2: -16.29%; Toxoplasma: 7.831%; PfKRS1: 1.588%.
With CCCS(=O)(=O)N1C[C@@H]2CN(Cc3ccoc3)CCO[C@@H]2C1 the screen gave TcHisRS: 6.557%; ClpP1P2: 2.922%; PfKRS1: 4.383%.
With Cc1occc1C(=O)N1CCOCC2(CCN(C3CCOCC3)C2)C1 (configuration not stated) the screen gave TcHisRS: 1.22%; ClpP1P2: -1.16%; PfKRS1: 1.61%.
With CO[C@@H]1CCN(Cc2cnn(C)c2)[C@@H]2CN(Cc3cccnc3)C[C@@H]21 the screen gave TcHisRS: 1.22%; ClpP1P2: -4.959%; PfKRS1: 0.4238%.

For reference, 2 entries once more:

Cc1csc(CNC(=O)NCC(O)c2ccccc2)n1 (configuration not stated) read Leishmania in macrophages: 21.97%; TcHisRS: 4.926%; ClpP1P2: -5.955%; Toxoplasma: 0.885%; PfKRS1: -0.02462%.
Fc1cccnc1N1CCC(NCc2cccc3cn[nH]c23)C1 (configuration not stated) read Leishmania in macrophages: 7.282%; TcHisRS: 2.105%; ClpP1P2: -12.31%; Toxoplasma: -7.04%; PfKRS1: -2.975%.